The list shows only some results of the screen, not a fair sample: it is rich in T/C values a quarter to a half above the control, in often repeated tests (any T/C) and in doses without a T/C. Further doses and runs are listed elsewhere. T/C gives the treated animals as a percentage of the vehicle group. Some entries give survivors of the animals treated and no T/C: the source holds a T/C of zero for them, seemingly a mark for toxic or unscored doses. Some survivor counts are full or nearly so, which does not show that the dose was tolerated: survival well below the control is almost never listed, so the zero probably covers shortened survival too. Survivors were counted at the toxicity check, usually on the fifth day, unless a day is given; later deaths do not show. Schedule codes are those of the source, taken here to give the interval after Q, in days (D) or hours (H), and the number of doses after X. Where survival is the endpoint, the PubChem record calls one and a half times the control and up active, and a quarter to a half above the control has no call in these data; cut-offs in other NCI protocols can differ. Some entries hold several experiments; the results are listed from low to high. Some T/C values carry the count of animals alive at the toxicity check (mostly the fifth day); where none is given, no animal had died by that day.
Test system: BDF1 mice, P388 leukemia ip, median survival T/C
Assay: NCI In Vivo Anticancer Drug Screen. Data for tumor model P388 Leukemia (intraperitoneal) in B6D2F1 (BDF1) mice
Settings: higher T/C = longer survival
Outline: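 Each value expresses how treatment altered survival: treated-mouse outcome over vehicle-mouse outcome, both groups bearing the transplanted tumour.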

[1] = T/C endpoint: median survival time, dose: 25.0 mg/kg/injection, schedule: Q01DX009 (ip), vehicle: saline
[2] = T/C endpoint: median survival time, dose: 400.0 mg/kg/injection, schedule: Q04DX003 (ip), vehicle: Klucel (hydroxypropylcellulose) (HPC)
[3] = T/C endpoint: median survival time, dose: 50.0 mg/kg/injection, schedule: Q01DX009 (ip), vehicle: saline with Tween-80
[4] = T/C endpoint: median survival time, dose: 300.0 mg/kg/injection, schedule: Q01DX009 (ip), vehicle: saline
[5] = T/C endpoint: median survival time, dose: 100.0 mg/kg/injection, schedule: Q01DX009 (ip), vehicle: saline with Tween-80
[6] = T/C endpoint: median survival time, dose: 200.0 mg/kg/injection, schedule: Q01DX009 (ip), vehicle: saline with Tween-80
[7] = T/C endpoint: median survival time, dose: 400.0 mg/kg/injection, schedule: Q04DX003 (ip), vehicle: saline with Tween-80
[8] = T/C endpoint: median survival time, dose: 400.0 mg/kg/injection, schedule: Q01DX009 (ip), vehicle: saline with Tween-80

SMILES: CC1=C(Br)C(=O)C(c2c(C)cc(C)cc2C)=C(Br)C1=O
- survivor count [1]: 6 of 6
- survivor count (T/C endpoint: median survival time, dose: 50.0 mg/kg/injection, schedule: Q01DX009 (ip), vehicle: saline): 5 of 6
- survivor count (T/C endpoint: median survival time, dose: 100.0 mg/kg/injection, schedule: Q01DX009 (ip), vehicle: saline): 5 of 6
- survivor count (T/C endpoint: median survival time, dose: 200.0 mg/kg/injection, schedule: Q01DX009 (ip), vehicle: saline): 2 of 6

SMILES: C[n+]1c(-c2cccc3ccccc23)c2cc([N+](=O)[O-])ccc2c2ccccc21
- T/C (T/C endpoint: median survival time, dose: 2.0 mg/kg/injection, schedule: Q04DX003 (ip), vehicle: water): 126 % of control
- T/C (T/C endpoint: median survival time, dose: 4.0 mg/kg/injection, schedule: Q04DX003 (ip), vehicle: water): 126 % of control
- T/C (T/C endpoint: median survival time, dose: 8.0 mg/kg/injection, schedule: Q01DX009 (ip), vehicle: water): 141 % of control
- T/C (T/C endpoint: median survival time, dose: 16.0 mg/kg/injection, schedule: Q01DX009 (ip), vehicle: water): 138 % of control
- T/C (T/C endpoint: median survival time, dose: 16.0 mg/kg/injection, schedule: Q04DX003 (ip), vehicle: water): 132 % of control
- T/C (T/C endpoint: median survival time, dose: 32.0 mg/kg/injection, schedule: Q04DX003 (ip), vehicle: water): 126 % of control

SMILES: C=C1C(=O)O[C@H]2C1[C@H](OC(=O)/C(C)=C\COC(C)=O)C[C@]1(CO1)[C@@H]1[C@H](O)[C@H]3O[C@@]3(C)[C@@H]12 (stereo not given in full)
- T/C (T/C endpoint: median survival time, dose: 3.12 mg/kg/injection, schedule: Q01DX009 (ip), vehicle: other): 130 % of control
- T/C (T/C endpoint: median survival time, dose: 12.5 mg/kg/injection, schedule: Q01DX009 (ip), vehicle: other): 135 % of control
- T/C (T/C endpoint: median survival time, dose: 50.0 mg/kg/injection, schedule: Q01DX009 (ip), vehicle: other): 140 % of control
- survivor count (T/C endpoint: median survival time, dose: 100.0 mg/kg/injection, schedule: Q01DX009 (ip), vehicle: other): 1 of 6

SMILES: [O-]c1c(Cl)c(Cl)c(O[P+](c2ccccc2)(c2ccccc2)c2ccccc2)c(Cl)c1Cl
- T/C [1]: 142 % of control

SMILES: CCCCCCCCCCC[CH2][Hg][CH2]CCCCCCCCCCC
- survivor count [2]: 6 of 6

SMILES: Cc1ccc(NCC(O)CN2CCOCC2)cc1 (stereo not given)
- survivor count (T/C endpoint: median survival time, dose: 200.0 mg/kg/injection, schedule: Q04DX003 (ip), vehicle: Klucel (hydroxypropylcellulose) (HPC)): 0 of 6
- survivor count [2]: 0 of 6

SMILES: CC(=O)Nc1ccc(SSSc2ccc(NC(C)=O)cc2)cc1
- T/C (T/C endpoint: median survival time, dose: 300.0 mg/kg/injection, schedule: Q01DX009 (ip), vehicle: water): 136 % of control
- survivor count (T/C endpoint: median survival time, dose: 400.0 mg/kg/injection, schedule: Q01DX009 (ip), vehicle: water): 3 of 6

SMILES: CC(C(=O)O)c1ccc2c(c1)[nH]c1ccc(Cl)cc12 (stereo not given)
- survivor count [3]: 6 of 6

SMILES: COc1c(C)c2c(c(O)c1C/C=C(\C)CCC(=O)O)C(=O)OC2
- T/C (T/C endpoint: median survival time, dose: 400.0 mg/kg/injection, schedule: Q01DX010 (ip), vehicle: saline): 136 % of control

SMILES: Cc1ccc(NC(=O)NCCCOc2ccc(N3C(N)=NC(N)=NC3(C)C)cc2Cl)cc1S(=O)(=O)F
- T/C (T/C endpoint: median survival time, dose: 132.0 mg/kg/injection, schedule: Q04DX003 (ip), vehicle: saline): 131 and 135 % of control
- T/C (T/C endpoint: median survival time, dose: 200.0 mg/kg/injection, schedule: Q04DX003 (ip), vehicle: saline): 131 and 145 % of control
- survivor count [4]: 4 of 6
- T/C (T/C endpoint: median survival time, dose: 300.0 mg/kg/injection, schedule: Q04DX003 (ip), vehicle: saline): 135 [5 of 6 alive] and 145 % of control
- survivor count (T/C endpoint: median survival time, dose: 400.0 mg/kg/injection, schedule: Q04DX003 (ip), vehicle: saline): 4 of 6

SMILES: N#CC1C(=O)NC(=O)C(C#N)C12CCCCC2 (stereo not given)
- T/C [3]: 127 % of control
- T/C [5]: 133 % of control [5 of 6 alive]
- T/C [6]: 127 % of control [4 of 6 alive]
- survivor count (T/C endpoint: median survival time, dose: 400.0 mg/kg/injection, schedule: Q01DX005 (ip), vehicle: saline with Tween-80): 3 of 6
- survivor count [7]: 3 of 6

SMILES: C=C(Cl)CSC(=N)N
- survivor count (T/C endpoint: median survival time, dose: 75.0 mg/kg/injection, schedule: Q01DX009 (ip), vehicle: saline): 1 of 6
- survivor count (T/C endpoint: median survival time, dose: 150.0 mg/kg/injection, schedule: Q01DX009 (ip), vehicle: saline): 0 of 6
- survivor count [4]: 0 of 6

SMILES: CC1(C)C(=O)C(O)=CC2C1=CCC1C2(C)C(=O)CC2(C)C(C(C)(O)C(=O)CC(O)C(C)(C)O)C(O)CC12C (stereo not given)
- survivor count (T/C endpoint: mean survival time, dose: 18.0 mg/kg/injection, schedule: Q01DX010 (ip), vehicle: carboxymethylcellulose (CMC)): 6 of 6

SMILES: COC(=O)C(CSCSC)NC(=O)/C=C/c1cc(OC)ccc1OC (stereo not given)
- survivor count [8]: 5 of 6

SMILES: Nc1cc(C(=O)Nc2ccc(C3=NCCN3)cc2)ccc1C(=O)Nc1ccc(C2=NCCN2)cc1
- T/C (T/C endpoint: median survival time, dose: 1.0 mg/kg/injection, schedule: Q01DX009 (ip), vehicle: saline with Tween-80): 125 % of control [5 of 6 alive]
- T/C (T/C endpoint: median survival time, dose: 5.0 mg/kg/injection, schedule: Q01DX009 (ip), vehicle: saline with Tween-80): 142 % of control
- survivor count [5]: 5 of 6
- survivor count [6]: 5 of 6
- survivor count [8]: 3 of 6
- survivor count [7]: 5 of 6

SMILES: O=C(/C=C/c1ccc(OCc2ccccc2)cc1)c1ccccc1Cl
- T/C [6]: 131 % of control

SMILES: Cc1cc(Br)c2nsnc2c1[N+](=O)[O-]
- T/C (T/C endpoint: median survival time, dose: 100.0 mg/kg/injection, schedule: Q01DX005 (ip), vehicle: saline with Tween-80): 127 % of control
- T/C (T/C endpoint: median survival time, dose: 200.0 mg/kg/injection, schedule: Q01DX005 (ip), vehicle: saline with Tween-80): 125 % of control

SMILES: CNC(=O)Oc1coc(CCl)cc1=O
- T/C (T/C endpoint: median survival time, dose: 16.5 mg/kg/injection, schedule: Q01DX009 (ip), vehicle: saline sonified): 135 % of control
- T/C (T/C endpoint: median survival time, dose: 25.0 mg/kg/injection, schedule: Q01DX009 (ip), vehicle: saline sonified): 140 % of control
- T/C (T/C endpoint: median survival time, dose: 37.5 mg/kg/injection, schedule: Q01DX009 (ip), vehicle: saline sonified): 130 % of control [5 of 6 alive]

SMILES: NC(=O)c1ccc(Cl)c(Cl)c1
- survivor count (T/C endpoint: median survival time, dose: 400.0 mg/kg/injection, schedule: Q04DX003 (ip), vehicle: other): 2 of 6

SMILES: O=NN(CCCl)C(=O)Nc1ccc2[nH]c3ccccc3c2c1
- survivor count (T/C endpoint: median survival time, dose: 130.0 mg/kg/injection, schedule: Q01DX009 (ip), vehicle: Klucel (hydroxypropylcellulose) (HPC)): 6 of 6
- survivor count (T/C endpoint: median survival time, dose: 260.0 mg/kg/injection, schedule: Q01DX009 (ip), vehicle: Klucel (hydroxypropylcellulose) (HPC)): 6 of 6
- survivor count (T/C endpoint: median survival time, dose: 520.0 mg/kg/injection, schedule: Q01DX009 (ip), vehicle: Klucel (hydroxypropylcellulose) (HPC)): 5 of 6

SMILES: C=CC(CN1CC1)OC(C)=O (stereo not given)
- T/C (T/C endpoint: median survival time, dose: 4.0 mg/kg/injection, schedule: Q01DX010 (ip), vehicle: saline): 125 % of control
- T/C (T/C endpoint: median survival time, dose: 8.0 mg/kg/injection, schedule: Q01DX010 (ip), vehicle: saline): 129 % of control
- survivor count (T/C endpoint: median survival time, dose: 16.0 mg/kg/injection, schedule: Q01DX010 (ip), vehicle: saline): 4 of 6
- survivor count (T/C endpoint: median survival time, dose: 32.0 mg/kg/injection, schedule: Q01DX010 (ip), vehicle: saline): 3 of 6

SMILES: c1ccc(CSSCc2ccccc2)cc1
- survivor count (T/C endpoint: median survival time, dose: 400.0 mg/kg/injection, schedule: Q01DX009 (ip), vehicle: Klucel (hydroxypropylcellulose) (HPC)): 6 of 6

SMILES: O=C1NC(c2ccccc2)(c2ccccc2)C(=O)N1CCBr
- survivor count (T/C endpoint: median survival time, dose: 12.5 mg/kg/injection, schedule: Q04DX003 (ip), vehicle: saline): 6 of 6
- survivor count (T/C endpoint: median survival time, dose: 25.0 mg/kg/injection, schedule: Q04DX003 (ip), vehicle: saline): 6 of 6
- survivor count (T/C endpoint: median survival time, dose: 100.0 mg/kg/injection, schedule: Q04DX003 (ip), vehicle: saline): 6 of 6

SMILES: CC(C)CCC[C@@H](C)[C@H]1CC[C@H]2[C@@H]3CC=C4C[C@@H](OC(=O)Cc5ccc(N(CCCl)CCCl)cc5)CC[C@]4(C)[C@H]3CC[C@]12C
- survivor count (T/C endpoint: median survival time, dose: 3.12 mg/kg/injection, schedule: Q01DX010 (sc), vehicle: steroid suspending solution): 6 of 6
- survivor count (T/C endpoint: median survival time, dose: 25.0 mg/kg/injection, schedule: Q01DX010 (sc), vehicle: steroid suspending solution): 6 of 6
- T/C (T/C endpoint: median survival time, dose: 200.0 mg/kg/injection, schedule: Q01DX010 (oral), vehicle: steroid suspending solution): 131 % of control

SMILES: CC1CCC2(C)CCC3(C)C(=CCC4C5(C)CCC(O)C(C)(C)C5CCC43C)C2C1C (stereo not given)
- survivor count (T/C endpoint: median survival time, dose: 200.0 mg/kg/injection, schedule: Q01DX009 (ip), vehicle: water): 10 of 10

From PubChem BioAssay AID328 (DTP/NCI, 2004)
